The target of assay [1] is cynomolgus PD-L1 antigen (ACROBiosystems) (cynomolgus) (UniProt G7PSE7). Put plainly: ELISA, coated antigen. A general note: An ELISA detects its analyte on a solid surface through an enzyme-linked reagent.
The target in assay [2] is cynomolgus CD40 antigen (ACROBiosystems) (cynomolgus) (UniProt G7PG38). The assay is described as follows: ELISA, coated antigen.

By UniProt entry, the sequences of proteins in these tests, tags left out. Where a name states a change or a piece, a line headed by the entry shows the natural chain unless it says otherwise. Chains listed by the source or under a name are the forms on record and can include a tag or linker.
cynomolgus PD-L1 antigen (ACROBiosystems) (G7PSE7, form named): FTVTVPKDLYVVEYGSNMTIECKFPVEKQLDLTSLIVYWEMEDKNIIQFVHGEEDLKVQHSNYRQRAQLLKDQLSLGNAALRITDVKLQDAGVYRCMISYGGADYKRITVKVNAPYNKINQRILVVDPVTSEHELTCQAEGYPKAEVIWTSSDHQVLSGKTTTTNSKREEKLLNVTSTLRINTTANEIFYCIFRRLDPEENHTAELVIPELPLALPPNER
cynomolgus CD40 antigen (ACROBiosystems) (G7PG38, form named): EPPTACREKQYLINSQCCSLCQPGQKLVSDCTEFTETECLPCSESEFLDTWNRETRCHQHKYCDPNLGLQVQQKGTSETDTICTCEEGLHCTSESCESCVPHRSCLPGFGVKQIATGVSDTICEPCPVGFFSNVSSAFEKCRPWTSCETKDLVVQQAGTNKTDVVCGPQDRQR

No constants are given. Whether binding was seen depends on the method and setting. Some results given as binding are weak or reduced against the parent protein; the word gives no strength.

B1: anti-PD-L1 monoclonal antibody 1029 (antibody, human IgG1, V domains shown)
VH: EVQLVESGGGLVQPGGSLRLSCAASGFTLDYYSKCWFRQAPGKEREWVSCIGSSDGSTYYADSVKGRFTISRDNAKNTVYLQMNSLRAEDTAVYYCAARNGGPLTIENFFDYWGQGTQVTVSS
On to B1, for which, in assay [1], the binding entry was “binds”.

B2: anti-PD-L1 monoclonal antibody 1031 (antibody, human IgG1, V domains shown)
VH: EVQLVESGGGLVQPGGSLRLSCAASGFTFEYYTKCWFRQAPGKEREWVSCISTSEGSTYYADSVKGRFTISRDNAKNTVYLQMNSLRAEDTAVYYCAARKGGPLTIENFFDYWGQGTQVTVSS
With B2, the binding entry in assay [1] is reported as “binds”.

B3: anti-PD-L1 monoclonal antibody 1541 (antibody, human IgG1, V domains shown)
VH: EVQLVESGGGLVQPGGSLRLSCAASGFTFDYYTQCWFRQAPGKEREWVSCISSSEGSTYYADSVKGRFTISRDNSKNTVYLQMNSLKTEDTAVYYCAARKGGPLTIENFFDYWGQGTQVTVSS
Regarding B3, the binding entry in assay [1] was “binds”.

B4: anti-PD-L1 monoclonal antibody 1102 (antibody, human IgG1, V domains shown)
VH: EVQLVESGGGLVQPGGSLRLSCAASGFTFDYYTQCWFRQAPGKEREWVSCISSSEGSTYYADSVKGRFTISRDNAKNTVYLQMNSLRAEDTAVYYCAARKGGPLTIENFFDYWGQGTQVTVSS
As to B4, the binding result in assay [1] is given as “binds”.

B5: anti-PD-L1/CD40 bispecific antibody 1606 (bispecific antibody, human IgG2, kappa)
light: DIQMTQSPSSLSASVGDRVTITCRASQDIRNYLNWYQQKPGKAPKLLIYYTSRRDSGVPSRFSGSGSGTDYTLTISSLQPEDFATYFCQQGKTLPWTFGGGTKVEIKRTVAAPSVFIFPPSDEQLKSGTASVVCLLNNFYPREAKVQWKVDNALQSGNSQESVTEQDSKDSTYSLSSTLTLSKADYEKHKVYACEVTHQGLSSPVTKSFNRGEC
heavy: EVQLVESGGGLVQPGGSLRLSCAASGFTFSDYYMSWVRQAPGKGLEWVGFIRNKANGYTTEYAASVKGRFTISRDNSKNTLYLQMNSLRAEDTAVYYCARYGGLRQGWYFDVWGQGTLVTVSSASTKGPSVFPLAPCSRSTSESTAALGCLVKDYFPEPVTVSWNSGALTSGVHTFPAVLQSSGLYSLSSVVTVPSSNFGTQTYTCNVDHKPSNTKVDKTVERKCCVECPPCPAPPVAGPSVFLFPPKPKDTLMISRTPEVTCVVVDVSHEDPEVQFNWYVDGVEVHNAKTKPREEQFNSTFRVVSVLTVVHQDWLNGKEYKCKVSNKGLPAPIEKTISKTKGQPREPQVYTLPPSREEMTKNQVSLTCLVKGFYPSDIAVEWESNGQPENNYKTTPPMLDSDGSFFLYSKLTVDKSRWQQGNVFSCSVMHEALHNHYTQKSLSLSPGGGGGSGGGGSGGGGSGEVQLVESGGGLVQPGGSLRLSCAASGFTFDYYTQCWFRQAPGKEREWVSCISSSEGSTYYADSVKGRFTISRDNSKNTVYLQMNSLKTEDTAVYYCAARKGGPLTIENFFDYWGQGTQVTVSS
For the molecule B5, the binding result in assay [2] and in assay [1] was “binds” in each case.

B6: anti-PD-L1/CD40 bispecific antibody 1609 (bispecific antibody, human IgG2, kappa)
light: DIQMTQSPSSLSASVGDRVTITCRASQTISSYLNWYQQKPGKAPKLLIYYTSTLQSGVPSRFSGSGSGTDYTLTISSLQPEDFATYYCQQGNAYPWTFGGGTKVEIKRTVAAPSVFIFPPSDEQLKSGTASVVCLLNNFYPREAKVQWKVDNALQSGNSQESVTEQDSKDSTYSLSSTLTLSKADYEKHKVYACEVTHQGLSSPVTKSFNRGEC
heavy: EVQLVESGGGLVQPGGSLRLSCAASGFTFSNYYMSWVRQAPGKGLEWVGFIRNKANGYTTEYAASVKGRFTISRDNSKSTLYLQMNSLRAEDTAVYYCARYGGLKIGWYFDLWGQGTLVTVSSASTKGPSVFPLAPCSRSTSESTAALGCLVKDYFPEPVTVSWNSGALTSGVHTFPAVLQSSGLYSLSSVVTVPSSNFGTQTYTCNVDHKPSNTKVDKTVERKCCVECPPCPAPPVAGPSVFLFPPKPKDTLMISRTPEVTCVVVDVSHEDPEVQFNWYVDGVEVHNAKTKPREEQFNSTFRVVSVLTVVHQDWLNGKEYKCKVSNKGLPAPIEKTISKTKGQPREPQVYTLPPSREEMTKNQVSLTCLVKGFYPSDIAVEWESNGQPENNYKTTPPMLDSDGSFFLYSKLTVDKSRWQQGNVFSCSVMHEALHNHYTQKSLSLSPGGGGGSGGGGSGGGGSGEVQLVESGGGLVQPGGSLRLSCAASGFTFDYYTQCWFRQAPGKEREWVSCISSSEGSTYYADSVKGRFTISRDNSKNTVYLQMNSLKTEDTAVYYCAARKGGPLTIENFFDYWGQGTQVTVSS
Regarding B6, the binding result in assay [2] and in assay [1] was “binds” throughout.

B7: anti-PD-L1/CD40 bispecific antibody 1652 (bispecific antibody, human IgG2, kappa)
light: DIQMTQSPSSLSASVGDRVTITCRASQDIRNYLNWYQQKPGKAPKLLIYYTSRRDSGVPSRFSGSGSGTDYTLTISSLQPEDFATYFCQQGKTLPWTFGGGTKVEIKRTVAAPSVFIFPPSDEQLKSGTASVVCLLNNFYPREAKVQWKVDNALQSGNSQESVTEQDSKDSTYSLSSTLTLSKADYEKHKVYACEVTHQGLSSPVTKSFNRGEC
heavy: EVQLVESGGGLVQPGGSLRLSCAASGFTFSDYYMSWVRQAPGKGLEWVGFIRNKANAYTTEYAASVKGRFTISRDNSKNTLYLQMNSLRAEDTAVYYCARYGGLRQGWYFDVWGQGTLVTVSSASTKGPSVFPLAPCSRSTSESTAALGCLVKDYFPEPVTVSWNSGALTSGVHTFPAVLQSSGLYSLSSVVTVPSSNFGTQTYTCNVDHKPSNTKVDKTVERKCCVECPPCPAPPVAGPSVFLFPPKPKDTLMISRTPEVTCVVVDVSHEDPEVQFNWYVDGVEVHNAKTKPREEQFNSTFRVVSVLTVVHQDWLNGKEYKCKVSNKGLPAPIEKTISKTKGQPREPQVYTLPPSREEMTKNQVSLTCLVKGFYPSDIAVEWESNGQPENNYKTTPPMLDSDGSFFLYSKLTVDKSRWQQGNVFSCSVMHEALHNHYTQKSLSLSPGGGGGSGGGGSGGGGSGEVQLVESGGGLVQPGGSLRLSCAASGFTFDYYTQCWFRQAPGKEREWVSCISSSEGSTYYADSVKGRFTISRDNSKNTVYLQMNSLKTEDTAVYYCAARKGGPLTIENFFDYWGQGTQVTVSS
Regarding B7, the binding entry in assay [2] and in assay [1] was “binds” each time.

B8: anti-CD40 monoclonal antibody 1605CD (antibody, human IgG2, kappa, V domains shown)
VH: EVQLVESGGGLVQPGGSLRLSCAASGFTFSNYYMSWVRQAPGKGLEWVAFIRNKANAYTTEYAASVKGRFTISRDNSKSTLYLQMNSLRAEDTAVYYCARYGGIRVGWYFDLWGQGTLVTVSS
VL: DIQMTQSPSSLSASVGDRVTITCRASQDIRNYLNWYQQKPGKAPKLLIYYTSRLQSGVPSRFSGSGSGTDYTLTISSLQPEDFATYYCQQGQSFPWTFGGGTKVEIKR
Take B8: the binding result in assay [2] is “binds”.

B9: anti-CD40 monoclonal antibody 1655CD (antibody, human IgG2, kappa, V domains shown)
VH: EVQLVESGGGLVQPGGSLRLSCAASGFTFSNYYMSWVRQAPGKGLEWVGFIRNKANAYTTEYAASVKGRFTISRDNSKSTLYLQMNSLRAEDTAVYYCARYGGLKIGWYFDLWGQGTLVTVSS
VL: DIQMTQSPSSLSASVGDRVTITCRASQTISSYLNWYQQKPGKAPKLLIYYTSTLQSGVPSRFSGSGSGTDYTLTISSLQPEDFATYYCQQGNAYPWTFGGGTKVEIKR
Take B9: the binding result in assay [2] is on record as “binds”.

B10: anti-CD40 monoclonal antibody 1609CD (antibody, human IgG2, kappa, V domains shown)
VH: EVQLVESGGGLVQPGGSLRLSCAASGFTFSNYYMSWVRQAPGKGLEWVGFIRNKANGYTTEYAASVKGRFTISRDNSKSTLYLQMNSLRAEDTAVYYCARYGGLKIGWYFDLWGQGTLVTVSS
VL: DIQMTQSPSSLSASVGDRVTITCRASQTISSYLNWYQQKPGKAPKLLIYYTSTLQSGVPSRFSGSGSGTDYTLTISSLQPEDFATYYCQQGNAYPWTFGGGTKVEIKR
B10: the binding entry in assay [2] was “binds”.

B11: anti-CD40 monoclonal antibody 1606CD (antibody, human IgG2, kappa, V domains shown)
VH: EVQLVESGGGLVQPGGSLRLSCAASGFTFSDYYMSWVRQAPGKGLEWVGFIRNKANGYTTEYAASVKGRFTISRDNSKNTLYLQMNSLRAEDTAVYYCARYGGLRQGWYFDVWGQGTLVTVSS
VL: DIQMTQSPSSLSASVGDRVTITCRASQDIRNYLNWYQQKPGKAPKLLIYYTSRRDSGVPSRFSGSGSGTDYTLTISSLQPEDFATYFCQQGKTLPWTFGGGTKVEIKR
Turning to B11, in assay [2], the binding result was “binds”.

B12: anti-CD40 monoclonal antibody 1652CD (antibody, human IgG2, kappa, V domains shown)
VH: EVQLVESGGGLVQPGGSLRLSCAASGFTFSDYYMSWVRQAPGKGLEWVGFIRNKANAYTTEYAASVKGRFTISRDNSKNTLYLQMNSLRAEDTAVYYCARYGGLRQGWYFDVWGQGTLVTVSS
VL: DIQMTQSPSSLSASVGDRVTITCRASQDIRNYLNWYQQKPGKAPKLLIYYTSRRDSGVPSRFSGSGSGTDYTLTISSLQPEDFATYFCQQGKTLPWTFGGGTKVEIKR
On to B12, for which the binding result in assay [2] is “binds”.

B13: anti-CD40 monoclonal antibody 1607CD (antibody, human IgG2, kappa, V domains shown)
VH: EVQLVESGGGLVQPGGSLRLSCAASGFTFSDYYMSWVRQAPGKGLEWVGFIRNKANGYTTEYAASVKGRFTISRDNSKSTLYLQMNSLRAEDTAVYYCARYGGLKKGWYFDLWGQGTLVTVSS
VL: DIQMTQSPSSLSASVGDRVTITCRASQGIRNYLNWYQQKPGKAPKLLIYYTSSLQSGVPSRFSGSGSGTDYTLTISSLQPEDFATYYCQQGINLPWTFGGGTKVEIKR
Turning to B13, the binding entry in assay [2] is “binds”.

B14: anti-CD40 monoclonal antibody 1654CD (antibody, human IgG2, kappa, V domains shown)
VH: EVQLVESGGGLVQPGGSLRLSCAASGFTFSNYYMSWVRQAPGKGLEWVGFIRNKANAYTTEYAASVKGRFTISRDNSKSTLYLQMNRLRAEDTAVYYCARYGGLKVGWYFDLWGQGTLVTVSS
VL: DIQMTQSPSSLSASVGDRVTITCRASQSISNYLAWYQQKPGKAPKLLIYAASSLQSGVPSRFSGSGSGTDYTLTISSLQPEDFATYYCQQGSSYPWTFGGGTKVEIKR
Regarding B14, the binding entry in assay [2] is on record as “binds”.

B15: anti-CD40 monoclonal antibody 1653CD (antibody, human IgG2, kappa, V domains shown)
VH: EVQLVESGGGLVQPGGSLRLSCAASGFTFSDYYMSWVRQAPGKGLEWVGFIRNKANAYTTEYAASVKGRFTISRDNSKSTLYLQMNSLRAEDTAVYYCARYGGLKKGWYFDLWGQGTLVTVSS
VL: DIQMTQSPSSLSASVGDRVTITCRASQGIRNYLNWYQQKPGKAPKLLIYYTSSLQSGVPSRFSGSGSGTDYTLTISSLQPEDFATYYCQQGINLPWTFGGGTKVEIKR
As to B15, the binding entry in assay [2] is given as “binds”.

B16: anti-CD40 monoclonal antibody 1608CD (antibody, human IgG2, kappa, V domains shown)
VH: EVQLVESGGGLVQPGGSLRLSCAASGFTFSNYYMSWVRQAPGKGLEWVGFIRNKANGYTTEYAASVKGRFTISRDNSKSTLYLQMNRLRAEDTAVYYCARYGGLKVGWYFDLWGQGTLVTVSS
VL: DIQMTQSPSSLSASVGDRVTITCRASQSISNYLAWYQQKPGKAPKLLIYAASSLQSGVPSRFSGSGSGTDYTLTISSLQPEDFATYYCQQGSSYPWTFGGGTKVEIKR
As to B16, the binding entry in assay [2] is “binds”.

The values are drawn from patent US20250376533A1.
